Data: patent US8828988B2 (Tetraphase Pharmaceuticals, Inc., priority 2009, dated 2014)
For some assays here: The name of at least one read-out is uncertain. For some assays here: At least one structure is not confirmed: it was looked up by name or label, or the drawing left a doubt.

Legend:
[1] = tested on: E. coli DH10B(pBAD-tetK), expressing tet(K); test: MIC against recombinant E. coli expressing tet(K); format: cell-based; settings: result in words
Excerpt: (§1) Constructs were transformed into E. coli DH10B for expression. Recombinant strains were pre-induced under optimized conditions with L-arabinose prior to use as inocula in CLSI standardized MIC assays.

[2] = tested on: E. coli DH10B(pBAD-tetM), expressing tet(M); test: MIC against recombinant E. coli expressing tet(M); format: cell-based; settings: result in words
Excerpt: as §1

[3] = tested on: S. pneumoniae clinical isolates; test: MIC50, MIC90 and MIC range, panel of clinical isolates (Example 20); format: cell-based; settings: 19 isolates
Procedure: (§2) The assays were run as follows.
(§3) Both values, as well as the MIC range (the lowest and highest MIC value observed for a collection of organisms), were determined for the isolates listed in Table 3.

[4] = tested on: S. aureus clinical isolates; test: as above; format: cell-based; set-up: unit not given beside the values; settings: MRSA, 30 isolates
Procedure: as §2, §3

[5] = tested on: E. faecalis clinical isolates; test: as above; format: cell-based; set-up: unit not given beside the values; settings: 24 isolates
Procedure: as §2, §3

[6] = tested on: E. coli S30 extract system, coupled in vitro transcription/translation, firefly luciferase readout; test: In vitro transcription/translation (TnT) assay; format: biochemical

Row | Structure (SMILES) | Effect of expression of (tet)K on activity [1] | Effect of expression of (tet)M on activity [2] | MIC50 [3] | MIC90 [3] | MIC50 [4] | MIC90 [4] | MIC50 [5] | MIC90 [5] | TnT IC50 [6] | E. coli TnT ([6]; Table 8)
1 | C[C@H]1COc2c(N3CCN(C)CC3)c(F)cc3c(=O)c(C(=O)O)cn1c23 [Levofloxacine, levofloxacin, reference compound] | unaffected | unaffected | – | – | – | – | – | – | – | –
2 | CN(C)c1cc(NC(=O)CNC(C)(C)C)c(O)c2c1C[C@H]1C[C@H]3[C@H](N(C)C)C(O)=C(C(N)=O)C(=O)[C@@]3(O)C(O)=C1C2=O [tigecycline, reference compound] | – | – | <=0.016 | <=0.016 | 0.13 | 0.13 | 0.063 | 0.13 | – | –
3 | C[C@H]1c2cccc(O)c2C(=O)C2=C(O)[C@]3(O)C(=O)C(C(N)=O)=C(O)[C@@H](N(C)C)[C@@H]3[C@@H](O)[C@@H]21 [Doxycycline, doxycycline, reference compound] | – | impacted | – | – | – | – | – | – | 2.63 µg/mL | 2.6 µg/mL
